Data on five molecules can be found in article PMC9238189.

The chains behind the UniProt entries cited, without tags or fusion partners.
UniProt Q7KZF4: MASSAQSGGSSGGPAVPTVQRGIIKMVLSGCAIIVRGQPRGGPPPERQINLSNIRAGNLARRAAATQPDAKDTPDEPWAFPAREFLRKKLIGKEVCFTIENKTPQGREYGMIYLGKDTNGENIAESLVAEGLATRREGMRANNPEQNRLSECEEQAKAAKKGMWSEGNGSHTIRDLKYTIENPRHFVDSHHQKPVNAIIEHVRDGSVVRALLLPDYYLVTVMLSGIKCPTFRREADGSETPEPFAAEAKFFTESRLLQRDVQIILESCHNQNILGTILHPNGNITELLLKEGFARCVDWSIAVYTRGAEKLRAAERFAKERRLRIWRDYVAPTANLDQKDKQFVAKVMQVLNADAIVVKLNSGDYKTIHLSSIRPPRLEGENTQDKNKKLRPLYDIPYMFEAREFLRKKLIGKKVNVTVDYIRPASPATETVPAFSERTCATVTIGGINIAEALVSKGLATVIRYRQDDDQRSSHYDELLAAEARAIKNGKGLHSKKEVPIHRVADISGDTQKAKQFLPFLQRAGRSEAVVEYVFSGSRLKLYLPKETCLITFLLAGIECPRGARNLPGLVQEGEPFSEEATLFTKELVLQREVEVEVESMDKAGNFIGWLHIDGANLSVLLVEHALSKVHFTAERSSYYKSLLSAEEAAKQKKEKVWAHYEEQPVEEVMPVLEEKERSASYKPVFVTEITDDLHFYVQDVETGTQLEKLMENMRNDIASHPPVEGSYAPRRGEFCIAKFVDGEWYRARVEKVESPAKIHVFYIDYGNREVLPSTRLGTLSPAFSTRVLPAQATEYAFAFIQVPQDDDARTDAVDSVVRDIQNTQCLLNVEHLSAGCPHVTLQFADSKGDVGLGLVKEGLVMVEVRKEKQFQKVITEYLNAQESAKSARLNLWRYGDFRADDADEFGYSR

In one assay the target is T1, ZsGreen1-tagged tTmod3-C (UniProt Q9NYL9).
T1 sequence: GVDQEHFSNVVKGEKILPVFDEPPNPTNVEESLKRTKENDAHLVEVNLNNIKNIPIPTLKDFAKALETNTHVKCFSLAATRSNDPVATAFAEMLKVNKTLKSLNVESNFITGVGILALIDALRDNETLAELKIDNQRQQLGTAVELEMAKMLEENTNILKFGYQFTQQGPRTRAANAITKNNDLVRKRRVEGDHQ
Nature of the assay: co-IP; anti-ZsGreen1 immunoprecipitate of ZsGreen1-tTmod3-C from U87-MG cells, immunoblot for SND1.

Assay [1] addresses T2, Asparagine endopeptidase (AEP) (mouse (endogenous in MEFs)) (UniProt O89017).
T2 sequence: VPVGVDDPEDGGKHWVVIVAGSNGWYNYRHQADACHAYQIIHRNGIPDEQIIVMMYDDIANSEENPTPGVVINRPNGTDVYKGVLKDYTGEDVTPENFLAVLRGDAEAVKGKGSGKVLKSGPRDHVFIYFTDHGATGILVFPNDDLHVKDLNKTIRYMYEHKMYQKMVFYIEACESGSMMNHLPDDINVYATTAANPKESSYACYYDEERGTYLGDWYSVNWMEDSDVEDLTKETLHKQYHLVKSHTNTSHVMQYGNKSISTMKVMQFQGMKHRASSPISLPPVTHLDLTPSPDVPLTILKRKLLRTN
Description: co-IP; AEP immunoprecipitated from MEFs, immunoblot for Tmod3. A general note: In western blotting, separated proteins are transferred to a membrane and probed.

A further assay deals with Flag-tagged SND1 (human) (UniProt Q7KZF4). Description: co-IP; Flag-tagged SND1 and ZsGreen1-tTmod3-C (or ZsGreen1) transiently expressed in HEK293 cells, immunoblotting with anti-ZsGreen1 antibody.
The target in assay [2] is T3, Asparagine endopeptidase (AEP) (UniProt Q99538).
T3 sequence: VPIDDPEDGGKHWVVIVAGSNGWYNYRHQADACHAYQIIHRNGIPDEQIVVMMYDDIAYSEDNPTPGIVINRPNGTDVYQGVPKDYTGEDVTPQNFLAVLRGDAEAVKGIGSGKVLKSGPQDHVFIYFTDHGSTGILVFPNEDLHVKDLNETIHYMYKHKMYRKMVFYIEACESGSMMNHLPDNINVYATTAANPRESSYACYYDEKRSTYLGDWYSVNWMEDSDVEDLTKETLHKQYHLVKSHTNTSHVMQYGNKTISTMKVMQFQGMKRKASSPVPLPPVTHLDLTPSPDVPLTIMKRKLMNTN
Description: co-IP; Flag-tagged truncations of Tmod3 and AEP in HEK293 cells, western blotting.

Assay [3] addresses T4, Asparagine endopeptidase (AEP) (human (endogenous in U87-MG and A172)) (UniProt Q99538).
T4 sequence: T3 sequence
Description: co-IP; endogenous co-IP and western blotting in U87-MG and A172 cells; whole-cell extracts, Protein A/G beads, low-salt lysis buffer washes.

These are yes or no findings as the source states them, for the method shown. In cells and extracts the contact can be indirect. Some entries that bind do so weakly or less than the wild type. For some assays here: Tags and fused reporters may be left off the sequences shown.

In the case of “Staphylococcal Nuclease And Tudor Domain Containing 1 (SND1) (from UniProt Q7KZF4 1-910)”, in the assay with ZsGreen1-tagged tTmod3-C, the binding entry was “binds”.

B1: Tropomodulin-3 (Tmod3) (protein, UniProt Q9JHJ0 1-352)
chain: MALPFRKDLGDYKDLDEDELLGKLSESELKQLETVLDDLDPENALLPAGFRQKNQTSKSATGPFDRERLLSYLEKQALEHKDRDDYVPYTGEKKGKIFIPKQKPAQTLTEETISLDPELEEALTSASDTELCDLAAILGMHNLIADTPFCDVLGSSNGVNQERFPNVVKGEKILPVFDEPPNPTNVEESLKRIRENDARLVEVNLNNIKNIPIPTLKDFAKTLEANTHVKHFSLAATRSNDPVAVAFADMLKVNKTLKSLNMESNFITGAGVLALIDALRDNETLMELKIDNQRQQLGTSVELEMAKMLEENTNILKFGYQFTQQGPRTRAANAITKNNDLVRKRRIEGDHQ
With B1, the binding result in assay [1] was “binds”.

B2: ZsGreen1-tTmod3-C (domain or fragment, UniProt Q9NYL9 158-352)
chain: T1 sequence
In the case of B2, in the assay with Flag-tagged SND1 (human), the binding entry is “binds”.

B3: Flag-tagged N-terminal truncated Tmod3 (amino acids 158-352), tTmod3-C (domain or fragment, UniProt Q9NYL9 158-352)
chain: T1 sequence
Regarding B3, the binding entry in assay [2] is “binds”.

B4: Tropomodulin-3 (Tmod3) (protein, UniProt Q9NYL9 1-352)
chain: MALPFRKDLEKYKDLDEDELLGNLSETELKQLETVLDDLDPENALLPAGFRQKNQTSKSTTGPFDREHLLSYLEKEALEHKDREDYVPYTGEKKGKIFIPKQKPVQTFTEEKVSLDPELEEALTSASDTELCDLAAILGMHNLITNTKFCNIMGSSNGVDQEHFSNVVKGEKILPVFDEPPNPTNVEESLKRTKENDAHLVEVNLNNIKNIPIPTLKDFAKALETNTHVKCFSLAATRSNDPVATAFAEMLKVNKTLKSLNVESNFITGVGILALIDALRDNETLAELKIDNQRQQLGTAVELEMAKMLEENTNILKFGYQFTQQGPRTRAANAITKNNDLVRKRRVEGDHQ
On to B4, for which, in assay [3], the binding result was “binds”.
